## Results of single-concentration screens

From ChEMBL document CHEMBL3988442, “University of Dundee, Small-Polar-MMV Screening Library” (2021).

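Assay of Toxoplasma gondii numbers, read through their beta-galactosidase reporter with a colour substrate. Tested at 50 µM. Higher reads as fewer parasites (inferred from which compounds were picked for retests). Size under these conditions: about 18,000 compounds, about 170 of them at 50% or above in at least one test.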

Values are the deposited “Percent Effect”, in %. How 0% and 100% were set is not recorded. Most values in the screen are low, and negative values occur. The compounds are a random part of those screened.

| structure | percent effect |
|---|---|
| `COc1ccc(OCCN2CCNCC2)cc1` | -1.112 |
| `CC(C)C1CCCN1CCN` (centres unmarked) | -4.436 |
| `CSCc1cc(F)ccc1CNC(=O)c1cn[nH]c1C` | 17.91 |
| `CCOc1ccc(-c2cc(N)[nH]n2)cc1` | -4.572 |
| `NC(c1ccc2c(c1)OCCO2)C1CC1` (centres unmarked) | 41.45 |
| `CNCC(=O)NCCc1c(OC)ccc2ccccc12` | 11.96 |
| `CN(Cc1ccc2cc(Cl)ccc2n1)CC(O)CO` (centres unmarked) | -3.327 |
| `COc1ccc(CNCCn2cccn2)cc1OC` | -8.387 |
| `C[C@@H](C#N)NC(=O)OC(C)(C)C` | 11.81 |
| `c1ccc(CNC2CCCNC2)cc1` (centres unmarked) | -0.02635 |
| `Cc1ccnc(CN)n1` | -12.14 |
| `Cn1ncc2c(NCCCS(C)(=O)=O)ncnc21` | -15.05 |
| `COCCOCCCNC(=O)c1cn2cc(C)nc2s1` | 5.507 |
| `COC(C(=O)N1CCCN(c2nccs2)CC1)C1CC1` (centres unmarked) | 4.202 |
| `CCNC(=O)c1nnsc1-c1ccc(C)cc1` | -23.89 |
| `CC(C)OCCCNC(=O)C1CCCN1C(=O)C1CC1` (centres unmarked) | -6.851 |
| `CSc1ccc(OCCN(C)CC(N)=O)cc1` | -8.606 |
| `Cc1ccc(F)c(NC(=O)CCSCC(N)=O)c1` | 5.356 |
| `CNCc1cc(C2CC2)n[nH]1` | 20.66 |
| `O=C(Cc1cccc(O)c1)NCCNc1ccccc1` | 1.163 |
| `CCOc1cccc(C(=O)N(C)C2CCN(C)CC2)c1` | 7.433 |
| `CCOC(=O)C1CCN(C(=O)c2nccnc2N)CC1` | -13.11 |
| `CSc1ccccc1-c1[nH][nH]c(=O)c1CCN` | 1.805 |
| `CNC(=O)c1cccc(S(=O)(=O)NC2CCCCC2)c1` | 0.199 |
| `O=C(COc1ccc(F)cc1)NC1CC1` | 2.459 |
| `O=C1CC2(CCCNC2)CN1` (centres unmarked) | -2.305 |
| `CCC(=O)c1cc(N)on1` | 17.18 |
| `CC(=O)N1CCN(C(=O)NCCCNS(C)(=O)=O)CC1` | 14.76 |
| `Cc1ccc(O)c(C(=O)N(C)Cc2ccccn2)c1` | -7.827 |
| `Cc1occc1C(=O)NCCCNCc1cccnc1` | 13.14 |
| `Cc1c(C(=O)Nc2ccc3c(c2)OCCO3)cnn1C` | 11.11 |
| `CN(Cc1nc(N)nc(N(C)C)n1)CC1CCCO1` (centres unmarked) | -3.952 |
| `O=C(NC(C1CC1)C1CC1)N1CCC2(CC1)OCCO2` | -3.708 |
| `COc1cccc(N2CCNCC2)c1F` | -5.139 |
| `CC(NC1=NCCN1)c1ccccn1` (centres unmarked) | -4.222 |
| `Cc1n[nH]c(C)c1CNC(=O)COc1ccc(F)cc1` | 2.139 |
| `CN1CCC(NC(=O)CCc2ccccc2F)CC1` | -0.9236 |
| `CC(C)N1CCC(C(=O)N(C)Cc2nccn2C)CC1` | 7.451 |
| `Cc1nc(CN(C)C2CCCNCC2)no1` (centres unmarked) | 7.233 |
| `CN(Cc1ccccc1)C(=O)C1(O)CCCC1` | 22.56 |
| `Cc1ocnc1C(=O)Nc1ccc2c(c1)NCCC2` | 48.26 |
| `CNC(=O)NC(=O)C(C)N1CCN(c2nccs2)CC1` (centres unmarked) | 3.907 |
| `CC(CN1CCOCC1)NC(=O)NC1CC1` (centres unmarked) | 9.806 |
| `Cc1nn(C)c(Cl)c1C(=O)NCCCN(C)S(C)(=O)=O` | 2.406 |
| `CCn1cccc(N)c1=O` | -21.18 |
| `O=C(NCc1ccc(-n2cccn2)cc1)NC1CC1` | 10.32 |
| `CC1(C)CCCC1NCCN1CCCS1(=O)=O` (centres unmarked) | 1.756 |
| `O=C(NCC(CO)Cc1cccnc1)C1CCCC1` (centres unmarked) | 1.986 |
| `COc1ccc(C(N)c2ccc(OC)cc2OC)cc1` (centres unmarked) | 6.767 |
| `O=C(c1ccc(N2CCOCC2)c(F)c1)N1CCCC1` | -0.6107 |
| `N#Cc1cccc(CN2CCn3ccnc3C2)c1` | 8.072 |
| `c1cc(-c2nnco2)ccn1` | 13.49 |
| `Brc1cncc(NCc2ncc[nH]2)c1` | 32.76 |
| `O=C1CNC2(CCCCC2)C(=O)N1` | -1.267 |
| `Cn1cc(Br)c(=O)c(NC(=O)c2ccc(O)cc2F)c1` | -4.417 |
| `CC(=O)c1cc(CN2CCOCC(CO)C2)n(C)c1` (centres unmarked) | -7.885 |
| `COCCNC(=O)c1cc2ccncc2[nH]1` | -2.17 |
| `N[C@H]1CN(C(=O)CCCn2ccnc2)C[C@@H]1C1CC1` | 0.7264 |
| `CCc1cc(=O)[nH]c(C2(N)CCCC2)n1` | -1.982 |
| `Cc1cc(O)nc(N2CCCCC2)n1` | -11.41 |
| `CC(C)Oc1ccccc1CN` | 27.05 |
| `CCOc1cccc(CSc2nc(=O)ccn2CC)n1` | -21.57 |
| `CN(Cc1ccco1)C(=O)CN1CCCCC1` | 11.78 |
| `N#Cc1ccc(CN2CCC(N)C2=O)cc1` (centres unmarked) | 13.77 |
| `NC(=O)c1ccc(C(=O)NCc2nccs2)nc1` | -11.09 |
| `O=C(Cc1ccc(F)cc1)NCCCn1cccn1` | 18.35 |
| `c1cc2c(cc1NC1CCCOC1)COC2` (centres unmarked) | -1.537 |
| `CN(C)CC(=O)NC(C)(CO)C1CCCCC1` (centres unmarked) | -12.56 |